Source: PubChem BioAssay AID743121 (NCATS, 2013)
Aim: 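Knock-downs that sensitise breast cancer cells to camptothecin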 (primary screen). Cell system: MDA-MB-231 cells, a human breast cancer line. Reagents: single siRNA against human genes, 20 nM siRNA (0.8 pmol per well). Duration: 120 h (drug added 48 h after transfection, read 72 h later). Challenge: camptothecin 20 nM (about EC30) for 72 h; vehicle 0.1% DMSO in parallel plates. Measurement: 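Cell viability by ATP luminescence (CellTiter-Glo) as % of non-targeting siRNA wells, and the log2 ratio of viability without drug over viability with camptothecin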. Scale: log2 vehicle/camptothecin viability: higher = stronger sensitisation to camptothecin; viability with camptothecin: higher = more viable cells. Active means: 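Each gene scored by redundant siRNA activity (RSA) over its individual siRNA ratios; a gene is called active at p < 0.001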.
The whole screen tested about 26,000 reagents; this is an unselected part. Over the whole deposit, 167 (0.63%) got an active call. 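Calls are per gene from RSA p-values that are not deposited; an individual active-marked siRNA can sensitise only weakly.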 Reagents against one gene are numbered here. Further read-outs or replicates are left out here. Reagent sequences are not shown.

gene | reagent | log2 vehicle/camptothecin viability | viability with camptothecin (% of control) | activity call
FDPS | 1 | -0.0577 | 103 | inactive
FDPS | 2 | 0.00499 | 92 | inactive
FDPS | 3 | 0.317 | 17.7 | inactive
FDPS | 4 | -0.343 | 84.5 | inactive
SIPA1 | 1 | -0.453 | 37.9 | inactive
SIPA1 | 2 | -0.2 | 66.6 | inactive
SIPA1 | 3 | 0.34 | 73.9 | inactive
SIPA1 | 4 | 0.025 | 71 | inactive
CKAP2 | 1 | 0.158 | 98.3 | inactive
CKAP2 | 2 | -0.313 | 127 | inactive
CKAP2 | 3 | 0.0363 | 40.3 | inactive
CKAP2 | 4 | -0.168 | 98.1 | inactive
MAPK8 | 1 | -0.194 | 80.9 | inactive
MAPK8 | 2 | -0.564 | 103 | inactive
MAPK8 | 3 | -0.208 | 95 | inactive
MAPK8 | 4 | -0.225 | 104 | inactive
RAD23A | 1 | -0.262 | 55.4 | inactive
RAD23A | 2 | 0.164 | 44 | inactive
RAD23A | 3 | -0.138 | 78.5 | inactive
CPA1 | 1 | -0.0118 | 98.8 | inactive
CPA1 | 2 | 0.352 | 85.4 | inactive
CPA1 | 3 | -0.104 | 60.9 | inactive
RGPD5 | 1 | -0.243 | 79.3 | inactive
RGPD5 | 2 | -0.495 | 7.7 | inactive
RGPD5 | 3 | -0.124 | 36 | inactive
RGPD5 | 4 | -0.619 | 99.3 | inactive
TIMP3 | 1 | -0.147 | 108 | inactive
TIMP3 | 2 | 0.226 | 46.4 | inactive
TIMP3 | 3 | -0.539 | 98.7 | inactive
PIP5KL1 | 1 | -0.361 | 95.1 | inactive
PIP5KL1 | 2 | -0.491 | 84.6 | inactive
PIP5KL1 | 3 | -0.51 | 80.3 | inactive
PIP5KL1 | 4 | -0.596 | 65.8 | inactive
PIP5KL1 | 5 | -0.206 | 95.6 | inactive
PIP5KL1 | 6 | 0.0145 | 83.1 | inactive
OR1E1 | 1 | -0.536 | 78.4 | inactive
OR1E1 | 2 | -0.288 | 79 | inactive
OR1E1 | 3 | -0.325 | 74.5 | inactive
OR1E1 | 4 | -0.22 | 90.1 | inactive
OR1E1 | 5 | -0.26 | 102 | inactive
OR1E1 | 6 | -0.404 | 78.8 | inactive
OR1E1 | 7 | -0.402 | 105 | inactive
OR1E1 | 8 | -0.00409 | 104 | inactive
IGBP1 | 1 | -0.0768 | 67.1 | inactive
IGBP1 | 2 | 0.427 | 54.6 | inactive
IGBP1 | 3 | -0.19 | 105 | inactive
IGBP1 | 4 | 0.375 | 59.3 | inactive
TNC | 1 | -0.309 | 68.1 | inactive
TNC | 2 | 0.123 | 87.4 | inactive
TNC | 3 | -0.236 | 101 | inactive
TNC | 4 | -0.503 | 69.4 | inactive
KCNE3 | 1 | -0.246 | 106 | inactive
KCNE3 | 2 | 0.588 | 42 | inactive
KCNE3 | 3 | -0.241 | 93.7 | inactive
KCNE3 | 4 | -0.413 | 109 | inactive
PRKACA | 1 | 0.0277 | 93.3 | inactive
PRKACA | 2 | 0.0834 | 73.1 | inactive
PRKACA | 3 | 0.0756 | 77.8 | inactive
PRKACA | 4 | 0.178 | 67.2 | inactive
GPR75 | 1 | -0.149 | 114 | inactive
GPR75 | 2 | 0.428 | 45 | inactive
GPR75 | 3 | -0.27 | 85.7 | inactive
GPR75 | 4 | -0.276 | 40 | inactive
GDF5 | 1 | -0.276 | 77.3 | inactive
GDF5 | 2 | -0.185 | 75.3 | inactive
GDF5 | 3 | -0.199 | 58.2 | inactive
GDF5 | 4 | -0.447 | 52.5 | inactive
CYTL1 | 1 | -0.124 | 36.3 | inactive
CYTL1 | 2 | -0.11 | 103 | inactive
CYTL1 | 3 | 0.296 | 78.7 | inactive
CYTL1 | 4 | -0.176 | 81.7 | inactive

8 entries already listed, arranged by “viability with camptothecin (% of control)”, ascending.
gene | reagent | log2 vehicle/camptothecin viability | viability with camptothecin (% of control) | activity call
CYTL1 | 1 | -0.124 | 36.3 | inactive
GDF5 | 4 | -0.447 | 52.5 | inactive
GDF5 | 3 | -0.199 | 58.2 | inactive
GDF5 | 2 | -0.185 | 75.3 | inactive
GDF5 | 1 | -0.276 | 77.3 | inactive
CYTL1 | 3 | 0.296 | 78.7 | inactive
CYTL1 | 4 | -0.176 | 81.7 | inactive
CYTL1 | 2 | -0.11 | 103 | inactive
